Some entries share one result that the patent states for a list of compounds.
Tests used:
[1] = tested on: S. aureus; assay: Photodynamic inactivation (PDI), CFU survival, white light (red light for TBO); format: cell-based, Staphylococcus aureus; conditions: 100 μM, 10 min, 0 J/cm^2
Description: (§1) Staphylococcus aureus (ATCC #35556), Escherichia coli (ATCC #25922), and Pseudomonas aeruginosa (ATCC #BAA-47; PAO1) were cultured in brain-heart infusion (BHI) broth (Difco, BD Diagnosttic Systems, Sparks, Md.) at 37° C. in aerobic conditions in a shaker at 150 rpm. Candida albicans (ATCC #18804) is grown in YM broth (Difco). Exponential cultures obtained by reculturing stationary overnight precultures were used for experiments.
(§2) E. coli, P. aeruginosa, and S. aureus are grown in fresh medium for approximately 1 hr to a density of about 10^8 cells/ml; the OD values at 650 nm are 0.6, 0.8, and 0.8, respectively. C. albicans is grown for approximately 4 hr to an approximate density of 10^8 cells/ml, corresponding to an OD of 6 at 650 nm (measured at 10-fold dilution). Cells were used for experiments in the mid-log growth phase.
(§3) A noncoherent lamp with filtered liquid light guides, e.g., a LumaCare™ LC122 lamp (MBG Technologies, Inc., Newport Beach, Calif.) was used to provide illumination of PS. […] The lamp was adjusted to give a uniform spot of about 4 cm diameter with an irradiance of 200 mW/cm^2, as measured with a power meter, e.g., a model DMM 199 meter with 201 Standard head (Coherent, Santa Clara, Calif.). […]
(§4) Illumination was carried out from above on microbial cell suspensions in wells of a 24-well plate. […] Survival fractions were calculated with reference to cells incubated in PBS alone. […]

[2] = tested on: P. aeruginosa; assay: as above; format: cell-based, Pseudomonas aeruginosa; conditions: 10 μM, 10 min, with a wash, white light up to 16 J/cm^2
Description: as §1, §2, §3, §4

Row | SMILES | dark toxicity to S. aureus (killing) [1] [%] | killing of P. aeruginosa [2]
1 | C[N+]1(C)Cc2c(c3c4ccc5c6ccc7c8ccc9c%10c%11c%12c(c2c2c3c3c4c5c4c6c7c5c8c9c%11c6c(c%122)c3c4c56)C2C[N+](C)(C)CC%102)C1 (stereo not shown) [CI2] | > 99.9999 | 3-5 logs
2 | C[N+]1(C)Cc2c(c3c4ccc5c6c7c(c8c9ccc%10c%11c%12c%13c(c2c2c3c3c4c5c4c6c8c5c9c%10c%12c6c(c%132)c3c4c56)C2C[N+](C)(C)CC%112)C[N+](C)(C)C7)C1 (stereo not shown) [CI3] | > 99.9999 | 3-5 logs

From patent US8207211B2, “Photosensitizers for targeted photodynamic therapy” (The General Hospital Corporation, priority 2005, dated 2012)
